Measured values: article PMC5472179 (Nature Communications, 2017)
Results are given in words; binding and its absence hold for the method and conditions named. For some of these results: In cells and extracts the contact can be indirect. Some binding calls cover weakened binding; strength is not graded here.

Experiments:
[1] = target: eNP 564-739 (Ebola virus (EBOV)) (UniProt L7QI51); assay: SEC; both purified
[2] = target: eNP 600-739 (Ebola virus (EBOV)) (UniProt L7QI51); assay: SEC; both purified
[3] = target: WT HA-eNP full length (Ebola virus (EBOV)) (UniProt P18272); assay: co-IP
[4] = target: eNP 590-739 (Ebola virus (EBOV)) (UniProt L7QI51); assay: SEC; both purified
[5] = target: MBP-eNP 437-739 (Ebola virus (EBOV)) (UniProt L7QI51); assay: pull-down; only the target purified
[6] = target: MBP-eNP 600-739 (Ebola virus (EBOV)) (UniProt L7QI51); assay: pull-down; only the target purified
[7] = target: MBP-eNP 590-739 (Ebola virus (EBOV)) (UniProt L7QI51); assay: pull-down; only the target purified
[8] = target: MBP-eNP 564-739 (Ebola virus (EBOV)) (UniProt L7QI51); assay: pull-down; only the target purified

In the case of “eVP30 89-288 (from UniProt Q05323 89-288) (domain or fragment)”, the binding [1] is reported as “binds” and the binding [2] is reported as “binds”.
“eVP30 110-272 (from UniProt Q05323 110-272) (domain or fragment)” was tested, and the binding [2] was “binds”.
With “WT FLAG-eVP30 full length (from UniProt Q05323 1-288)” the binding [3] was “binds”.
“eVP30 69-288 (from UniProt Q05323 69-288) (domain or fragment)” was tested, and the binding [1] was “binds”, the binding [4] was “binds” and the binding [5] was “binds”. The binding [6] was “binds”, the binding [7] was “binds” and the binding [8] was “binds”.
